PubChem BioAssay AID1159584 | Peter MacCallum Cancer Centre | 2016
In all, the deposit lists about 18,000 reagents; below is a part drawn at random. Not stated in the record: the amount of reagent, the time to read-out.

- Purpose: 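Genes whose loss is lethal only together with E-cadherin loss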 (primary screen)
- Cells: human MCF10A breast epithelial cells, parental and CDH1-null
- Reagents: siRNA against human genes
- Measurement: 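Cell viability by CellTiter-Glo ATP luminescence, each line scaled to the mean of mock wells across plates, then CDH1-null over parental ratio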
- Direction: CDH1-null / parental viability ratio: higher = CDH1-null cells survive relatively better than parental; CDH1-null viability vs mock: higher = more viable CDH1-null cells; parental viability vs mock: higher = more viable parental cells

The first 3 records, to show the layout:
gene	CDH1-null / parental viability ratio	CDH1-null viability vs mock (fraction of mock)	parental viability vs mock (fraction of mock)
ITGAV (integrin subunit alpha V)	0.89	0.78	0.88
DCXR (dicarbonyl and L-xylulose reductase)	0.89	0.9	1.01
RPF2 (ribosome production factor 2 homolog)	0.7	0.45	0.64

Results, from the start:
gene	CDH1-null / parental viability ratio	CDH1-null viability vs mock (fraction of mock)	parental viability vs mock (fraction of mock)
ITGAV (integrin subunit alpha V)	0.89	0.78	0.88
DCXR (dicarbonyl and L-xylulose reductase)	0.89	0.9	1.01
RPF2 (ribosome production factor 2 homolog)	0.7	0.45	0.64
GALNT17 (polypeptide N-acetylgalactosaminyltransferase 17)	0.99	0.92	0.93
EXOC2 (exocyst complex component 2)	1.41	1.04	0.74
RARRES2 (retinoic acid receptor responder 2)	0.97	0.9	0.93
RAB11FIP2 (RAB11 family interacting protein 2)	0.93	0.62	0.67
ADH1A (alcohol dehydrogenase 1A (class I), alpha polypeptide)	0.92	0.96	1.04
PATE2 (prostate and testis expressed 2)	0.96	0.88	0.92
MED15 (mediator complex subunit 15)	0.94	0.72	0.77
COL18A1 (collagen type XVIII alpha 1 chain)	1.36	0.68	0.5
PEX6 (peroxisomal biogenesis factor 6)	0.87	0.87	1
SPACA5B (sperm acrosome associated 5B)	0.95	0.87	0.92
LRRC10 (leucine rich repeat containing 10)	0.83	0.52	0.63
UNCX (UNC homeobox)	1.05	0.92	0.88
SH3BGRL2 (SH3 domain binding glutamate rich protein like 2)	1.15	1.12	0.97
SAMD14 (sterile alpha motif domain containing 14)	0.96	0.79	0.82
STRADA (STE20 related adaptor alpha)	1.01	0.78	0.77
NLRP10 (NLR family pyrin domain containing 10)	1.12	1.12	1
HOXC4 (homeobox C4)	0.85	0.74	0.87
PDE3A (phosphodiesterase 3A)	1.11	1.04	0.94
DOCK7 (dedicator of cytokinesis 7)	1	0.28	0.28
NLGN3 (neuroligin 3)	1	1.04	1.04
VPS26C (VPS26 endosomal protein sorting factor C)	1.16	0.95	0.82
UBE2J2 (ubiquitin conjugating enzyme E2 J2)	1.12	0.96	0.86
CALHM6 (calcium homeostasis modulator family member 6)	1.05	0.63	0.6
PTCHD1 (patched domain containing 1)	1.21	0.94	0.78
NEXN (nexilin F-actin binding protein)	1.06	0.34	0.32
MORN4 (MORN repeat containing 4)	0.74	0.37	0.5
NSMAF (neutral sphingomyelinase activation associated factor)	1	0.96	0.96
ASAH1 (N-acylsphingosine amidohydrolase 1)	1.35	0.66	0.49
SNRNP70 (small nuclear ribonucleoprotein U1 subunit 70)	0.95	0.63	0.66
PRPH2 (peripherin 2)	0.84	0.64	0.76
NAP1L5 (nucleosome assembly protein 1 like 5)	1	0.9	0.9
AHDC1 (AT-hook DNA binding motif containing 1)	1.13	0.54	0.48
TRIM33 (tripartite motif containing 33)	0.97	0.97	1
SNCG (synuclein gamma)	1.3	0.82	0.63
SLC23A2	0.96	0.96	1
DUS1L (dihydrouridine synthase 1 like)	1.15	0.6	0.52
BAG2 (BAG cochaperone 2)	0.9	0.95	1.06
HBP1 (HMG-box transcription factor 1)	1.19	0.38	0.32
ETV4 (ETS variant transcription factor 4)	1.33	1.12	0.84
PCDHB9 (protocadherin beta 9)	0.61	0.51	0.84
PDLIM2 (PDZ and LIM domain 2)	0.59	0.48	0.82
SLITRK5 (SLIT and NTRK like family member 5)	0.99	0.91	0.92
NRIP2 (nuclear receptor interacting protein 2)	0.76	0.61	0.8
